The target in assay [1] is monomeric His6-(Grb2-SH2) (UniProt P62993). The experiment in a line: fluorescence polarisation; competition fluorescence anisotropy; displacement of fluorescein peptide 17 from His6-(Grb2-SH2) by unlabelled peptides; both purified. (In general: In fluorescence polarisation assays a small probe gives low polarisation when free and higher when bound to something large.)
In assay [2] the target is monomeric His6-(Grb2-SH2), P62993. The description is as above. Particulars: remark: other sources report otherwise.

Chains of the proteins cited; added tags and fusions are not shown. Residues count along the entry.
UniProt P62993, residues 60-152: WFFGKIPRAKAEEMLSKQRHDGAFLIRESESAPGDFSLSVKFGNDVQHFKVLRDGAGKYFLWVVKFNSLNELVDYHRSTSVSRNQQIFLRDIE

Results are given in words; binding and its absence hold for the method and conditions named. For some assays here: Where a sequence is shown, tags or fusion partners need not be part of it.

B1: peptide 19, AcHN-Ser-His-Val-Asn-Val-Gln-NH2 (peptide)
peptide: SHVNVQ
modifications: N-terminal acetyl (AcHN); C-terminal amide (NH2)
As for B1, the binding result in assay [1] was “no binding”.

B2: peptide 18, AcHN-Ser-Tyr-Val-Asn-Val-Gln-NH2 (peptide)
peptide: SYVNVQ
modifications: here or on the partner: N-terminal acetyl (AcHN); C-terminal amide (NH2)
With B2, in assay [2], the binding result is “no binding”.

For the origin of these results see article PMC4159583, “Evaluation of the Interaction between Phosphohistidine Analogues and Phosphotyrosine Binding Domains” (Chembiochem, 2014).
